Values quoted from earlier work as cited in PMC10343800, “A Novel LSTM-Based Machine Learning Model for Predicting the Activity of Food Protein-Derived Antihypertensive Peptides” (Molecules, 2023).
The match of structure and compound is tentative.

The chains behind the UniProt entries cited, without tags or fusion partners. Residues count along the entry.
UniProt P12821, 30-1306 limits assumed: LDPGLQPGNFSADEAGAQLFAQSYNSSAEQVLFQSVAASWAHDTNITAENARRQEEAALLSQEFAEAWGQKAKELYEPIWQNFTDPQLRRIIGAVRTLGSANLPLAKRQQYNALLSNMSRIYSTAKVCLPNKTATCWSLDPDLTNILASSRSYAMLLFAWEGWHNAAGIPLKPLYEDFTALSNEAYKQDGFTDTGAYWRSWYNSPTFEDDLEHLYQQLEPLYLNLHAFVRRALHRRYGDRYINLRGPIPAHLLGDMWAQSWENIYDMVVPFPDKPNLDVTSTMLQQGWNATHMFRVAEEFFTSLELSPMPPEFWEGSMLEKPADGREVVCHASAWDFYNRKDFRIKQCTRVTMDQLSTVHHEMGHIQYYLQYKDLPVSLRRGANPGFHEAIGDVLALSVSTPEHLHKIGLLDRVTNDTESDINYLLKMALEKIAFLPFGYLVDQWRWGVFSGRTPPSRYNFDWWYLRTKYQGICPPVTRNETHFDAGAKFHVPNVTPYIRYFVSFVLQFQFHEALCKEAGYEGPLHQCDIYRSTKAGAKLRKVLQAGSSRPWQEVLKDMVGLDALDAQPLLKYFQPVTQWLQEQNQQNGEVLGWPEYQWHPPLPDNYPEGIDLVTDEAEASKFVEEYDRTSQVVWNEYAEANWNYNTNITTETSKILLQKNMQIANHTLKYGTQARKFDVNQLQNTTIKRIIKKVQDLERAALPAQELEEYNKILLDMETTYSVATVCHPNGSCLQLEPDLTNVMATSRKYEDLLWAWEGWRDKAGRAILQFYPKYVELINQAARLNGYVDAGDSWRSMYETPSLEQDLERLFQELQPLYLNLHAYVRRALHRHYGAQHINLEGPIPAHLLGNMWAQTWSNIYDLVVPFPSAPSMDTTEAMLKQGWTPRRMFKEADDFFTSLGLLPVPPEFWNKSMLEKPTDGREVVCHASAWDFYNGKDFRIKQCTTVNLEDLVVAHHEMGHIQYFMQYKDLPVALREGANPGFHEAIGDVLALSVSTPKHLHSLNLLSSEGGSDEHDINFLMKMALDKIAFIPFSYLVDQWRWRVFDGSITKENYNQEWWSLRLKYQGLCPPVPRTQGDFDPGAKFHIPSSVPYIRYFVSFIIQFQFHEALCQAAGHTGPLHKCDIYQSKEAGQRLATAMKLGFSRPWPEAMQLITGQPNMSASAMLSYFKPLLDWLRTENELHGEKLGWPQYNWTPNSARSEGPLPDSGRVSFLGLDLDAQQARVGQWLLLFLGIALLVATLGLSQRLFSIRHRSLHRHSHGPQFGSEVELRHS

Biological target: ACE (Homo sapiens, UniProt P12821)
Settings: read-out: Reported IC50; in vitro ACE inhibition; cited from earlier work

| SMILES | IC50 |
| --- | --- |
| CC(C)C[C@H](N)C(=O)N[C@@H](CCC(N)=O)C(=O)N1CCC[C@H]1C(=O)O | 1040 nM |
| CC[C@H](C)[C@H](N)C(=O)N[C@@H](CCCNC(=N)N)C(=O)N[C@@H](Cc1c[nH]c2ccccc12)C(=O)O | 610 nM |
| CC(C)C[C@H](N)C(=O)N[C@@H](C)C(=O)N[C@@H](CCCCN)C(=O)O | 48000 nM |
| CC[C@H](C)[C@H](N)C(=O)N[C@@H](CCC(N)=O)C(=O)N[C@@H](Cc1c[nH]c2ccccc12)C(=O)O | 1560 nM |
| CC[C@H](C)[C@H](N)C(=O)N[C@H](C(=O)N[C@@H](Cc1ccc(O)cc1)C(=O)O)C(C)C | 45800 nM |
| NC(=O)C[C@H](N)C(=O)N[C@@H](Cc1ccccc1)C(=O)O | 46300 nM |
| CC(C)C[C@H](N)C(=O)N[C@@H](CCCCN)C(=O)N[C@@H](Cc1ccc(O)cc1)C(=O)O | 780 nM |
